Growth estimate data for 78 substances are collected here from the supplement of paper PMC5949888.

Most values lie at the floor of the assay. Slopes are relative: functional sequences can read slightly below zero.

This data set deals with Saccharomyces cerevisiae PS128 hsf1 delta, HSF1(1-493) fusion. Description: growth estimate (transactivation domain function in HSF1 fusion, heat-shock survival) (a.u. (slope of normalised read count over time)); higher = stronger growth at 37°C, i.e. more transactivation activity. The following applies: library: random library.
In the case of PMPFGSEILGFAR, the growth estimate was under -0.25.

Turning to FAFYGPTKDATSCTFHRRAM, the growth estimate is under -0.25.

For the substance EGTTIL, the growth estimate was under -0.25.

NSECPHNPGSVFKTFQLRSP: the growth estimate was under -0.25.

TVAVWWGRGVLNRYYSGRTQ: the growth estimate was under -0.25.

With TQLIGR, the growth estimate is under -0.25.

For the substance NLL, the growth estimate is under -0.25.

Turning to KRSSVCAYPHRSTQLPAPDA, the growth estimate was under -0.25.

Consider RLGRGCAIESRLAVRTILGM, for which the growth estimate is under -0.25.

As for ARSFPDTLFHSRASYTAKLP, the growth estimate was under -0.25.

Regarding YIVLLLGSSGISKGEGNRGA, the growth estimate is under -0.25.

For the substance YPLAKLFGFWHVVVHQALIR, the growth estimate was under -0.25.

Consider GVEYVLHGCRGNSRLYVNVC, for which the growth estimate was under -0.25.

In the case of TRDLTYNGVCSSWRTG, the growth estimate is under -0.25.

With PTSEAHLE, the growth estimate was under -0.25.

Turning to RKYLNRKRGVWTRGRNFENG, the growth estimate is under -0.25.

For ADVARPHQPTR, the growth estimate was under -0.25.

On to SPSRPKNLDTADAPSVVDLA, for which the growth estimate is under -0.25.

Consider LGAGSKPTGSKWAFR, for which the growth estimate was under -0.25.

Regarding HISRNLPVKGTV, the growth estimate was under -0.25.

As to PRTYVGAASWVTHGSGSTLG, the growth estimate was under -0.25.

Regarding IAAELRDREALGCPGTNPLG, the growth estimate was under -0.25.

Take GTGMTHTACERHSKNWSLGG: the growth estimate was under -0.25.

Turning to SRKRCCAVQYGANGSRSAGK, the growth estimate was under -0.25.

For GRGPGAGNCYARMRESRVPD, the growth estimate was under -0.25.

Turning to PGAPGLCPEELPPSLRNLWA, the growth estimate is -0.19.

Consider KADGDGRREWYCNGAARIRM, for which the growth estimate is under -0.25.

For the substance NSRVHEMYPRPSGRVNRLMV, the growth estimate was under -0.25.

With GVLRACLRKYGVPRGPWSTS, the growth estimate is under -0.25.

HLSNYEFMDFRRINP: the growth estimate is under -0.25.

Turning to RQATVGSRGP, the growth estimate is under -0.25.

In the case of LCMKASKSAQDKAPRLP, the growth estimate was under -0.25.

On to GSLWVDLVYSAWKS, for which the growth estimate is under -0.25.

On to TIMWRYIMHTM, for which the growth estimate is under -0.25.

With GLP, the growth estimate was under -0.25.

As for VMGSRNSWAKAISPLSSRLD, the growth estimate is under -0.25.

Consider GWN, for which the growth estimate is under -0.25.

Turning to GGRCRNGTLKGAAHEDK, the growth estimate is under -0.25.

On to NLVPAKEADLAP, for which the growth estimate is under -0.25.

On to LMNNSEGRGIEGIASRGLRW, for which the growth estimate is under -0.25.

Consider PRAWWGTIDLLQVL, for which the growth estimate is under -0.25.

With WTCLGREYQAVNRCPQPRGD, the growth estimate was under -0.25.

In the case of KLGC, the growth estimate is under -0.25.

In the case of AWARLTSGIF, the growth estimate was under -0.25.

Turning to NPLIADCRKNSLGWLDVWSA, the growth estimate was under -0.25.

In the case of GGVQVNS, the growth estimate was under -0.25.

Consider WVVEIQSHLPGFT, for which the growth estimate is under -0.25.

In the case of RKVAVVPVRESVFTSGDGSW, the growth estimate is under -0.25.

Consider TAHFPSCLGWQRLERGTRIA, for which the growth estimate was under -0.25.

In the case of KSRDVSRMVIYVRFGLEREE, the growth estimate is under -0.25.

As to HRGSQVPICGVWAHTTQHYD, the growth estimate was under -0.25.

As to DIKVCLWYFGT, the growth estimate is -0.203.

For LLGDRCNTPGVVCGNRGLHA, the growth estimate was under -0.25.

As to LFAPYCYTTAALPTWKVICL, the growth estimate was under -0.25.

Regarding RGGQSYGIVHIRWRLYMISE, the growth estimate is under -0.25.

In the case of IIWKILPVLRSSARPCSKQR, the growth estimate was under -0.25.

Regarding NTVSSE, the growth estimate was under -0.25.

In the case of WEGSQLGSNVLISTSCGRTA, the growth estimate is under -0.25.

As to RSLRNTTPAYISSL, the growth estimate was under -0.25.

For MRLIRGGSHHQ, the growth estimate is under -0.25.

With FIANPSVWQVLRSAH, the growth estimate was under -0.25.

Regarding GSLFPRRRANLGFSDRSAWA, the growth estimate was under -0.25.

Turning to RSCAGYPPSHGAQKL, the growth estimate is under -0.25.

Turning to GRRREQSYRRQEWYT, the growth estimate is under -0.25.

As to ADTGKG, the growth estimate is under -0.25.

In the case of VQPPRDHGACSRPKCRLLAQ, the growth estimate is under -0.25.

On to AESAPAPVRREDYA, for which the growth estimate was under -0.25.

For GNVIE, the growth estimate is under -0.25.

As for PIDARSMLRR, the growth estimate was under -0.25.

With LPTTVLRSVEK, the growth estimate is under -0.25.

For the substance FGRSDSRALQITLLKSRSCM, the growth estimate is under -0.25.

VVG: the growth estimate is under -0.25.

For HTR, the growth estimate was under -0.25.

As to SHEGWGYP, the growth estimate was under -0.25.

As for LTSKYGIPW, the growth estimate is under -0.25.

As for RQGHSSTPDSDGPYCL, the growth estimate is under -0.25.

Consider GLEERDQAFFEARRDGGVRS, for which the growth estimate is under -0.25.

ERSGGEQNCLCKLLNEGLCT: the growth estimate is under -0.25.
